# Measured values taken from paper PMC3411732.
# Sequences of proteins named here, by UniProt entry; tags and fusion partners are left off. A change or cut given only in a name is not applied to a line headed by its entry. Residues count along the entry.
# UniProt P12978: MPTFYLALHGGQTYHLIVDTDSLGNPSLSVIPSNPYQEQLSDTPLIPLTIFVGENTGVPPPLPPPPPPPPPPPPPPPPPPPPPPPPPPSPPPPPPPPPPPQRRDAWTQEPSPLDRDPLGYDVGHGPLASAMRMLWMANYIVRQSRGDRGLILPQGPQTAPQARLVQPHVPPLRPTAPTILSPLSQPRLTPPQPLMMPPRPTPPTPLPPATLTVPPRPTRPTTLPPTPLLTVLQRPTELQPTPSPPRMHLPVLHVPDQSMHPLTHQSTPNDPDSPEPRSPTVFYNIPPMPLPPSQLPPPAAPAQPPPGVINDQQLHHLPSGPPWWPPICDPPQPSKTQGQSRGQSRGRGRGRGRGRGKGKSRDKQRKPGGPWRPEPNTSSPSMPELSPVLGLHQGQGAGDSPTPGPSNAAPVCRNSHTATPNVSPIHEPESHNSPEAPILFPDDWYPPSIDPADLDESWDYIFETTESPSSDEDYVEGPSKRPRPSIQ
# GST-EBNA2 fusion protein containing aa 300–400 of EBNA2, unmethylated (NMA): residues 300-400 of P12978
# GST-EBNA2 aa400–487 fusion protein: residues 400-487 of P12978
# Results are given in words; binding and its absence hold for the method and conditions named. For some of these results: Binding seen in cells or lysates may run through a third protein. Some results given as binding are weak or reduced against the parent protein; the word gives no strength.
# Tests used:
# [1] = target: GFP-EBNA2 fusion protein, expressed in BHK cells with a lacO array (Epstein-Barr virus) (UniProt P12978); assay: two-hybrid; fluorescent two-hybrid assay in BHK cells with a genomic lacO array: GFP fusion (bait) captured at the array by GBP-LacI, co-localisation of the CFP or DsRed fusion (prey) at the lacO spot; cells fixed about 16 h after transfection
# [2] = target: GFP-hnRNP K, expressed in BHK cells with a lacO array (UniProt P61978); assay: as above
# [3] = target: GST-EBNA2 aa400–487 fusion protein (Epstein-Barr virus) (UniProt P12978); assay: pull-down; GST fusion proteins on glutathione-Sepharose beads, incubated 2 h at 4°C with 500 µl DG75 native whole cell extract (AdOx-treated), washed 5 times with lysis buffer containing 0.5 M NaCl; hnRNP K detected with mAb D-6; only the target purified
# [4] = target: GST-EBNA2 fusion protein containing aa 300–400 of EBNA2, unmethylated (NMA) (Epstein-Barr virus) (UniProt P12978); assay: as above
substance,measurement,setting,value
"CFP-hnRNP K fusion protein, expressed in BHK cells (from UniProt P61978 1-463)",binding,[1],binds
"DsRed-EBNA2, expressed in BHK cells (from UniProt P12978 1-487)",binding,[2],binds
"hnRNP K, endogenous in DG75 cells (from UniProt P61978 1-463)",binding,[3],no binding
same,binding,[4],binds
